Source: patent publication US7964735B2, “Insecticidal 3-acylaminobenzanilides” (Bayer Cropscience AG, priority 2005, dated 2011)
Some of these results come from one statement about several compounds together.

system: adults of Tetranychus urticae; test: Test to Tetranychus urticae (spraying test on kidney bean); type: in vivo; conditions: efficacious component concentration 500 ppm; sprayed on kidney bean; after 7 days from spraying

Structure (SMILES)	insecticidal ratio (insect extermination ratio) [%]
CCc1cc(C(F)(C(F)(F)F)C(F)(F)F)cc(C)c1NC(=O)c1cccc(NC(=O)c2cnccc2C(F)(F)F)c1 [Compound 1, 3-[4-(trifluoromethyl)nicotinyl]amino-N-(2-ethyl-6-methyl-4-heptafluoroisopropylphenyl)benzamide]	≥ 98
CCc1cc(C(F)(C(F)(F)F)C(F)(F)F)cc(C)c1NC(=O)c1cccc(NC(=O)c2ccc(Cl)nc2)c1 [Compound 3]	≥ 98
CCc1cc(C(F)(C(F)(F)F)C(F)(F)F)cc(C)c1NC(=O)c1cccc(NC(=O)c2ncc(C(F)(F)F)cc2Cl)c1 [Compound 13]	≥ 98
CCc1cc(C(F)(C(F)(F)F)C(F)(F)F)cc(C)c1NC(=O)c1cccc(NC(=O)c2ccc(OC(F)(F)F)cc2)c1 [Compound 39]	≥ 98
CCc1cc(C(F)(C(F)(F)F)C(F)(F)F)cc(C)c1NC(=O)c1cccc(NC(=O)c2ccc(Cl)c(Cl)c2)c1 [Compound 43]	≥ 98
CCc1cc(C(F)(C(F)(F)F)C(F)(F)F)cc(C)c1NC(=O)c1cccc(NC(=O)c2ccc(Cl)cc2Cl)c1 [Compound 44]	≥ 98
CCc1cc(C(F)(C(F)(F)F)C(F)(F)F)cc(C)c1NC(=O)c1cccc(NC(=O)c2cc(Cl)cc(Cl)c2)c1 [Compound 45]	≥ 98
CCc1cc(C(F)(C(F)(F)F)C(F)(F)F)cc(C)c1NC(=O)c1cccc(NC(=O)c2c(Cl)cccc2Cl)c1 [Compound 46]	≥ 98
CCc1cc(C(F)(C(F)(F)F)C(F)(F)F)cc(C)c1NC(=O)c1cccc(NC(=O)c2cccc(Cl)c2Cl)c1 [Compound 47]	≥ 98
CCc1cc(C(F)(C(F)(F)F)C(F)(F)F)cc(C)c1NC(=O)c1cccc(NC(=O)c2ccc(C(F)(F)F)cc2)c1 [Compound 49]	≥ 98
CCc1cc(C(F)(C(F)(F)F)C(F)(F)F)cc(C)c1NC(=O)c1cccc(NC(=O)c2c(F)cccc2F)c1 [Compound 54]	≥ 98
CCc1cc(C(F)(C(F)(F)F)C(F)(F)F)cc(C)c1NC(=O)c1cccc(NC(=O)c2ccccc2Cl)c1 [Compound 57]	≥ 98
CCc1cc(C(F)(C(F)(F)F)C(F)(F)F)cc(C)c1NC(=O)c1cccc(NC(=O)c2cccc(Cl)c2)c1 [Compound 58]	≥ 98
CCc1cc(C(F)(C(F)(F)F)C(F)(F)F)cc(C)c1NC(=O)c1cccc(NC(=O)c2ccc(Cl)cc2)c1 [Compound 59]	≥ 98
CCc1cc(C(F)(C(F)(F)F)C(F)(F)F)cc(C)c1NC(=O)c1cccc(NC(=O)c2ccc(F)cc2)c1 [Compound 61]	≥ 98
CCc1cc(C(F)(C(F)(F)F)C(F)(F)F)cc(C)c1NC(=O)c1cccc(NC(=O)c2ccccc2F)c1 [Compound 63]	≥ 98
CCc1cc(C(F)(C(F)(F)F)C(F)(F)F)cc(C)c1NC(=O)c1cccc(NC(=O)c2ccc(C)cc2)c1 [Compound 64]	≥ 98
Cc1cc(C(F)(C(F)(F)F)C(F)(F)F)cc(C)c1NC(=O)c1cccc(NC(=O)c2ccccc2)c1 [Compound 88]	≥ 98
Cc1cc(C(F)(C(F)(F)F)C(F)(F)F)cc(C)c1NC(=O)c1cccc(NC(=O)c2ccccc2Cl)c1F [Compound 134]	≥ 98
